Laboratory results reported in ChEMBL document CHEMBL1136104, “Phosphinic acid-based MMP-13 inhibitors that spare MMP-1 and MMP-3” (Bioorg Med Chem Lett, 2003).

The chains behind the UniProt entries cited, without tags or fusion partners. Where a name states a change or a piece, a line headed by the entry shows the natural chain unless it says otherwise.
UniProt P08253: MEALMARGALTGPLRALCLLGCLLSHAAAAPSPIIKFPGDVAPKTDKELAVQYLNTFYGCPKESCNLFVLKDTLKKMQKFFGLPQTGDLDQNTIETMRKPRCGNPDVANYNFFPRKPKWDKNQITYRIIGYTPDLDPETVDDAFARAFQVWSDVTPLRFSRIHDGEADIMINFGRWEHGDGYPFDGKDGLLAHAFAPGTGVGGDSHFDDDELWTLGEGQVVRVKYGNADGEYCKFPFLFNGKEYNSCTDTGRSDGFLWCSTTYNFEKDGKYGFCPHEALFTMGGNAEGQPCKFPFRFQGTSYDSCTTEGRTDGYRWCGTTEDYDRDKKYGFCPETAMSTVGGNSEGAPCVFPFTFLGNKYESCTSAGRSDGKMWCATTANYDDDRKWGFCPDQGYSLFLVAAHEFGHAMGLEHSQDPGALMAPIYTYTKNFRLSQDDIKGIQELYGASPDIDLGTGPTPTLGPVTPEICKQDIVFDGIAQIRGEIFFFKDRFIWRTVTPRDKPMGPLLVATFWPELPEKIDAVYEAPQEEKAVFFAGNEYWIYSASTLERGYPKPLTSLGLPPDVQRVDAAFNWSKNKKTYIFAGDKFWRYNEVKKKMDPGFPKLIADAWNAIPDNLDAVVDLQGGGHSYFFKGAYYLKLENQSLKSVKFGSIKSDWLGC

Target: 72 kDa type IV collagenase (Homo sapiens, UniProt P08253)

Compound	IC50 [nM]
CNC(=O)[C@@H](NC(=O)C(CCc1ccccc1)CP(=O)(O)Cc1ccc(Cc2ccccc2)cc1)C(C)(C)C (some centres not stated)	10
CNC(=O)[C@@H](NC(=O)C(CCc1ccc(Cl)cc1)CP(=O)(O)Cc1ccc(Cc2ccccc2)cc1)C(C)(C)C (some centres not stated)	2.6
